For 14 compounds, T/C and survivor count results are on record in PubChem BioAssay AID256 (DTP/NCI, 2004).

In the assay the test system is CD2F1 mice, L1210 leukemia ip, survival T/C. Nature of the assay: NCI In Vivo Anticancer Drug Screen. Data for tumor model L1210 Leukemia (intraperitoneal) in CD2F1 (CDF1) mice. The note with it: higher T/C = longer survival. A digest of the protocol:
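Ratio T/C, where T is the treated-group value and C the vehicle-dosed control value, from mice implanted with a transplantable tumor.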

Where [1] appears, read: T/C endpoint: mean survival time, dose: 100.0 mg/kg/injection, schedule: Q01DX005 (ip), vehicle: saline.
[2] abbreviates: T/C endpoint: mean survival time, dose: 200.0 mg/kg/injection, schedule: Q01DX005 (ip), vehicle: saline.
Where [3] appears, read: T/C endpoint: mean survival time, dose: 250.0 micrograms/kg/injection, schedule: Q01DX005 (ip), vehicle: sodium bicarbonate.
The mark [4] stands for this setting: T/C endpoint: mean survival time, dose: 400.0 mg/kg/injection, schedule: Q04DX003 (ip), vehicle: saline with Tween-80.

SMILES strings stand for the structures. The list is a part of this screen's results and no random one: it is rich in T/C values a quarter to a half above the control, in often repeated tests (any T/C) and in doses without a T/C. Further doses and runs are listed elsewhere. T/C: endpoint of the treated group in % of that of the vehicle group. Some doses have a count of surviving animals in place of a T/C: the source holds a T/C of zero for them, seemingly a mark for toxic or unscored doses. Some survivor counts are full or nearly so, which does not show that the dose was tolerated: survival well below the control is almost never listed, so the zero probably covers shortened survival too. Counts of survivors are from the toxicity check (mostly the fifth day) where no day follows; animals may have died later. Schedules are NCI's codes, read here as Q, the interval in days (D) or hours (H), X, the number of doses. Some schedule codes hold Z or #, which are not explained here. Where survival is the endpoint, this PubChem deposit counts one and a half times the control or more as active, and values a quarter to a half above the control carry no call in these data; other NCI protocols may use other cut-offs. Additions like (4×) say how often a value occurs here. Some T/C values are followed by the survivors on the day toxicity was checked, most often the fifth; without a count, all were alive then. Some entries hold several experiments; the values are given in rising order.

On to `OC(CBr)C(O)C(O)C(O)CBr` (centres undefined), for which the T/C (T/C endpoint: mean survival time, dose: 200.0 mg/kg/injection, schedule: Q01DX009 (oral), vehicle: other) is 130 % of control; the T/C (T/C endpoint: mean survival time, dose: 200.0 mg/kg/injection, schedule: Q04DX003 (ip), vehicle: saline) is 127 % of control; the T/C (T/C endpoint: mean survival time, dose: 300.0 mg/kg/injection, schedule: Q04DX003 (ip), vehicle: Klucel (hydroxypropylcellulose) (HPC)) is 140 % of control; the T/C (T/C endpoint: mean survival time, dose: 300.0 mg/kg/injection, schedule: Q04DX003 (ip), vehicle: saline) was 127 % of control; the T/C (T/C endpoint: mean survival time, dose: 400.0 mg/kg/injection, schedule: Q04DX003 (ip), vehicle: Klucel (hydroxypropylcellulose) (HPC)) is 132 % of control; the T/C (T/C endpoint: median survival time, dose: 80.0 mg/kg/injection, schedule: Q01DX005 (ip), vehicle: Klucel (hydroxypropylcellulose) (HPC), evaluated on day 30) was 135 % of control. For the same compound, the T/C was 132 and 134 % of control [9 of 10 alive] (T/C endpoint: median survival time, dose: 80.0 mg/kg/injection, schedule: Q01DX005 (ip), vehicle: Klucel (hydroxypropylcellulose) (HPC), evaluated on day 45); 125 and 141 % of control [9 of 10 alive] (T/C endpoint: median survival time, dose: 200.0 mg/kg/injection, schedule: Q04DX003 (ip), vehicle: Klucel (hydroxypropylcellulose) (HPC)). In addition, the survivor count is 6 of 6 (T/C endpoint: mean survival time, dose: 800.0 mg/kg/injection, schedule: Q01DX009 (oral), vehicle: other); 10 of 10 (T/C endpoint: median survival time, dose: 64.0 mg/kg/injection, schedule: Q03HX008 (ip), vehicle: Klucel (hydroxypropylcellulose) (HPC)); 10 of 10 (T/C endpoint: median survival time, dose: 64.0 mg/kg/injection, schedule: Q03HX016 (ip), vehicle: Klucel (hydroxypropylcellulose) (HPC)); 10 of 10 (T/C endpoint: median survival time, dose: 64.0 mg/kg/injection, schedule: Q03HX024 (ip), vehicle: Klucel (hydroxypropylcellulose) (HPC)); 7 of 10 (T/C endpoint: median survival time, dose: 128.0 mg/kg/injection, schedule: Q03HX008 (ip), vehicle: Klucel (hydroxypropylcellulose) (HPC)); 4 of 10 (T/C endpoint: median survival time, dose: 128.0 mg/kg/injection, schedule: Q03HX016 (ip), vehicle: Klucel (hydroxypropylcellulose) (HPC)). Also, the survivor count is, setting by setting: (T/C endpoint: median survival time, dose: 128.0 mg/kg/injection, schedule: Q03HX024 (ip), vehicle: Klucel (hydroxypropylcellulose) (HPC)) 4 of 10; (T/C endpoint: median survival time, dose: 256.0 mg/kg/injection, schedule: Q01DX009 (ip), vehicle: Klucel (hydroxypropylcellulose) (HPC)) 10 of 10; (T/C endpoint: median survival time, dose: 256.0 mg/kg/injection, schedule: Q03HX008 (ip), vehicle: Klucel (hydroxypropylcellulose) (HPC)) 2 of 10; (T/C endpoint: median survival time, dose: 256.0 mg/kg/injection, schedule: Q03HX016 (ip), vehicle: Klucel (hydroxypropylcellulose) (HPC)) 3 of 10; (T/C endpoint: median survival time, dose: 512.0 mg/kg/injection, schedule: Q01DX009 (ip), vehicle: Klucel (hydroxypropylcellulose) (HPC)) 9 of 10; (T/C endpoint: median survival time, dose: 1024.0 mg/kg/injection, schedule: Q01DX001 (ip), vehicle: Klucel (hydroxypropylcellulose) (HPC)) 7 of 10. Also, the survivor count (T/C endpoint: median survival time, dose: 1024.0 mg/kg/injection, schedule: Q04DX003 (ip), vehicle: Klucel (hydroxypropylcellulose) (HPC)) is 8 of 10; the survivor count (T/C endpoint: median survival time, dose: 1024.0 mg/kg/injection, schedule: Q08DX002 (ip), vehicle: Klucel (hydroxypropylcellulose) (HPC)) is 8 of 10; the survivor count (T/C endpoint: median survival time, dose: 2048.0 mg/kg/injection, schedule: Q01DX001 (ip), vehicle: Klucel (hydroxypropylcellulose) (HPC)) is 7 of 10; the survivor count (T/C endpoint: median survival time, dose: 2048.0 mg/kg/injection, schedule: Q08DX002 (ip), vehicle: Klucel (hydroxypropylcellulose) (HPC)) is 6 of 10.

Regarding `O=C(O)/C=C(/C(=O)O)c1cccn1Cc1ccccc1`, the survivor count (T/C endpoint: mean survival time, dose: 200.0 mg/kg/injection, schedule: Q04DX002 (ip), vehicle: saline with Tween-80) was 1 of 3 and the survivor count (T/C endpoint: mean survival time, dose: 400.0 mg/kg/injection, schedule: Q04DX002 (ip), vehicle: saline with Tween-80) is 0 of 3.

For the compound `OCC1OC(n2cnc3c([Se]Cc4ccccc4)ncnc32)C(O)C1O` (centres undefined), the survivor count is, setting by setting: under setting [1], 0 of 6; under setting [2], 0 of 6.

In the case of `CN(C)CCP(c1ccccc1)c1ccccc1`, the survivor count reads like this: (T/C endpoint: mean survival time, dose: 150.0 mg/kg/injection, schedule: Q01DX001 (ip), vehicle: other) 0 of 6; (T/C endpoint: mean survival time, dose: 300.0 mg/kg/injection, schedule: Q01DX001 (ip), vehicle: other) 0 of 6.

Consider `O=P(OCc1ccccc1)(N(CCCl)CCCl)N1CCCC1` (centres undefined), for which the survivor count by setting is: (T/C endpoint: mean survival time, dose: 256.0 mg/kg/injection, schedule: Q01DX Z (ip), vehicle: saline) 2 of 6; (T/C endpoint: mean survival time, dose: 512.0 mg/kg/injection, schedule: Q01DX Z (ip), vehicle: saline) 0 of 6.

With `Nc1nc(N)c2nc(COc3ccc(C(=O)NC(CCC(=O)O)C(=O)O)cc3)ccc2n1` (centres undefined), the survivor count is on record as 5 of 6 (T/C endpoint: mean survival time, dose: 0.5 mg/kg/injection, schedule: Q01DX005 (ip), vehicle: sodium bicarbonate); 3 of 6 (T/C endpoint: mean survival time, dose: 1.0 mg/kg/injection, schedule: Q01DX005 (ip), vehicle: sodium bicarbonate); 5 of 6 (T/C endpoint: mean survival time, dose: 2.0 mg/kg/injection, schedule: Q01DX005 (ip), vehicle: sodium bicarbonate); 2 of 6 (T/C endpoint: mean survival time, dose: 4.0 mg/kg/injection, schedule: Q01DX005 (ip), vehicle: sodium bicarbonate); 2 of 6 (T/C endpoint: mean survival time, dose: 8.0 mg/kg/injection, schedule: Q01DX005 (ip), vehicle: sodium bicarbonate); 2 of 6 (T/C endpoint: mean survival time, dose: 16.0 mg/kg/injection, schedule: Q01DX005 (ip), vehicle: sodium bicarbonate). Moreover, the survivor count by setting is: under setting [3], 6 of 6; (T/C endpoint: mean survival time, dose: 500.0 micrograms/kg/injection, schedule: Q01DX005 (ip), vehicle: sodium bicarbonate) 6 of 6. The T/C by setting is: (T/C endpoint: mean survival time, dose: 62.5 micrograms/kg/injection, schedule: Q01DX005 (ip), vehicle: sodium bicarbonate) 132 % of control; (T/C endpoint: mean survival time, dose: 125.0 micrograms/kg/injection, schedule: Q01DX005 (ip), vehicle: sodium bicarbonate) 130 % of control (2×); under setting [3], 145 % of control.

Turning to `Cc1ccoc1`, the survivor count (T/C endpoint: median survival time, dose: 133.3 mg/kg/injection, schedule: Q03HX015 (ip), vehicle: saline with Tween-80) is listed as 3 of 6.

Turning to `O=[N+]([O-])c1ccc(C[Se]c2ncnc3c2ccn3C2OC(CO)C(O)C2O)cc1` (centres undefined), the survivor count was 0 of 6 under setting [1] and 0 of 6 under setting [2].

As to `COc1ccc(CC(N)C(=O)NC2C(COP(=O)(O)OC3CC(n4cc(C)c(=O)[nH]c4=O)OC3CO)OC(n3cnc4c(N(C)C)ncnc43)C2O)cc1` (centres undefined), the survivor count (T/C endpoint: median survival time, dose: 350.0 mg/kg/injection, schedule: Q01DX005 (ip), vehicle: saline) is listed as 3 of 6.

Turning to `CC(C)CC(CC(C)C)C(=O)C1C2CCC(O2)C1C(=O)C(CC(C)C)CC(C)C` (centres undefined), the survivor count reads like this: (T/C endpoint: mean survival time, dose: 50.0 mg/kg/injection, schedule: Q04DX002 (ip), vehicle: saline with Tween-80) 3 of 3; (T/C endpoint: mean survival time, dose: 100.0 mg/kg/injection, schedule: Q04DX002 (ip), vehicle: saline with Tween-80) 3 of 3.

In the case of `O=S(=O)(O)c1cc(O)ccc1O.O=S(=O)(O)c1cc(O)ccc1O.[NH-]C1CCCCC1[NH-].[Pt+2]`, the T/C is, setting by setting: (T/C endpoint: median survival time, dose: 6.25 mg/kg/injection, schedule: Q04DX003 (ip), vehicle: saline) 130 % of control; (T/C endpoint: median survival time, dose: 12.5 mg/kg/injection, schedule: Q04DX003 (ip), vehicle: saline) 133 % of control; (T/C endpoint: median survival time, dose: 25.0 mg/kg/injection, schedule: Q04DX003 (ip), vehicle: saline) 127 % of control.

Turning to `COc1ccc(OC)c(C2N(C)CCCN2C)c1`, the survivor count is, setting by setting: (T/C endpoint: mean survival time, dose: 100.0 mg/kg/injection, schedule: Q04DX003 (ip), vehicle: saline with Tween-80) 2 of 6; (T/C endpoint: mean survival time, dose: 200.0 mg/kg/injection, schedule: Q04DX003 (ip), vehicle: saline with Tween-80) 0 of 6; under setting [4], 0 of 6.

As for `Cc1c(N=Nc2ccc(N(C)C)cc2)cc[n+]([O-])c1C`, the survivor count under setting [4] is on record as 4 of 6.

Consider `Cc1cc(N(CCOS(C)(=O)=O)CCOS(C)(=O)=O)ccc1N=Nc1ccccc1`, for which the survivor count was 3 of 3 (T/C endpoint: mean survival time, dose: 50.0 mg/kg/injection, schedule: Q01DX009 (ip), vehicle: Klucel (hydroxypropylcellulose) (HPC)); 3 of 3 (T/C endpoint: mean survival time, dose: 100.0 mg/kg/injection, schedule: Q01DX009 (ip), vehicle: Klucel (hydroxypropylcellulose) (HPC)); 3 of 3 (T/C endpoint: mean survival time, dose: 200.0 mg/kg/injection, schedule: Q01DX009 (ip), vehicle: Klucel (hydroxypropylcellulose) (HPC)).
